Results deposited as PubChem BioAssay AID720710 (VTT Finland, 2013)

Test: 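Knock-downs that leave cyclin E-high cells sensitive to replication stress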 (primary screen)
System: human U-2 OS bone cancer cells, parental and a cyclin E (CCNE1) overexpressing line
Reagent: single siRNA against human genes, 1 µM siRNA in the printed spot mix
Time to read-out: 67 h
Conditions: half the arrays: hydroxyurea 2 mM for 16 h, then 3 h recovery; other arrays untreated
Detection: 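EdU click signal imaged per DAPI-stained nucleus at 67 h; each spot divided by its subgrid median, then z-scored relative to non-targeting control spots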
Reading the numbers: EdU z-score, cyclin E line, hydroxyurea: higher = more DNA synthesis than non-targeting controls
The whole screen tested about 1,380 reagents; this is an unselected part. 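One array per condition without replicates; hydroxyurea arrays received 2 mM for 16 h plus 3 h recovery.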 The numbers tell different reagents against one gene apart. Not all columns of the deposit are shown.

Gene,siRNA no.,"EdU z-score, cyclin E line, hydroxyurea"
AIFM1,1,-1.2
AIFM1,2,-0.207
SPDYA,1,-2.06
SPDYA,2,2.68
PRPF19,1,-0.0949
PRPF19,2,0.407
ADAR,1,-2.34
ADAR,2,1.35
NCAPD3,1,-1.7
NCAPD3,2,-1.04
LOC389901,1,0.378
LOC389901,2,1.54
TIPIN,1,-0.582
TIPIN,2,-0.282
VCP,1,-1.27
VCP,2,0.0471
SMC6,1,0.211
SMC6,2,0.327
H1-3,1,0.23
H1-3,2,1.76
HMGA1,1,-1.45
HMGA1,2,-0.178
RASSF8,1,-0.567
RASSF8,2,-0.0254
NAP1L1,1,0.103
NAP1L1,2,0.69
EZH2,1,-1.67
EZH2,2,0.383

The list goes on, starting with the last 7 of the part before.
Gene,siRNA no.,"EdU z-score, cyclin E line, hydroxyurea"
HMGA1,2,-0.178
RASSF8,1,-0.567
RASSF8,2,-0.0254
NAP1L1,1,0.103
NAP1L1,2,0.69
EZH2,1,-1.67
EZH2,2,0.383
RBBP8,1,-2.21
RBBP8,2,0.285
INO80,1,-0.888
INO80,2,-0.106
SMARCC1,1,-2.31
SMARCC1,2,-1.17
PPARGC1A,1,-1.22
PPARGC1A,2,-0.13
CEP250,1,-0.397
CEP250,2,-0.258
RRM1,1,-1.21
RRM1,2,0.617
SPATA18,1,-0.982
SPATA18,2,1.74
TP73,1,-0.604
TP73,2,0.142
SUPT16H,1,-0.132
SUPT16H,2,0.566
RFC5,1,-0.756
RFC5,2,2.57
TERF1,1,0.13
TERF1,2,1.23
MSH5,1,-0.393
MSH5,2,0.287
RPA1,1,-1.31
RPA1,2,-0.872
SETD2,1,0.0623
SETD2,2,0.707
ARID1B,1,-2.26
ARID1B,2,1.65
